In PubChem BioAssay AID264 (DTP/NCI, 2004) one finds T/C and survivor count data, which are given here for 19 compounds.

The list does not hold the whole screen: it is rich in T/C values a quarter to a half above the control, in often repeated tests (any T/C) and in doses without a T/C. Further doses and runs are listed elsewhere. T/C gives the treated animals as a percentage of the vehicle group. Schedule codes are those of the source, taken here to give the interval after Q, in days (D) or hours (H), and the number of doses after X. Some T/C values are followed by the survivors on the day toxicity was checked, most often the fifth; where none is given, no animal had died by that day. Some doses have a count of surviving animals in place of a T/C: the source files T/C as zero there, which appears to mark a toxic dose or a test without result, not a measured value. Survivors were counted at the toxicity check, usually on the fifth day, unless a day is given; later deaths do not show. Some doses were run more than once; their values stand side by side, smallest first.

This experiment deals with nude mice, LX-1 lung xenograft intrarenal, tumor weight T/C. As to the kind of experiment: NCI In Vivo Anticancer Drug Screen. Data for tumor model Human Lung LX-1 Xenograft (intrarenal inoculation) in NU/NU Swiss (nude) mice. Particulars: T/C endpoint: mean tumor weight change, higher T/C = larger tumour; for T/C: evaluated on day 11. In outline: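 Antitumor effect is expressed as a ratio: the mean tumor measurement of the drug-treated group relative to that of the vehicle-dosed control group.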
(In general: In xenograft studies the graft and the host belong to different species.)

[1] abbreviates: dose: 100.0 mg/kg/injection, schedule: Q01DX010 (sc), vehicle: saline.
The mark [2] stands for this setting: dose: 200.0 mg/kg/injection, schedule: Q01DX010 (sc), vehicle: saline.
The mark [3] stands for this setting: dose: 20.0 mg/kg/injection, schedule: Q01DX010 (sc), vehicle: saline with Tween-80.
Where [4] appears, read: dose: 100.0 mg/kg/injection, schedule: Q04DX003 (sc), vehicle: saline with Tween-80.
Setting [5] is: dose: 200.0 mg/kg/injection, schedule: Q04DX003 (sc), vehicle: saline with Tween-80.
Setting [6] is: dose: 50.0 mg/kg/injection, schedule: Q01DX010 (sc), vehicle: saline.

`CCC[CH2][Sn]1([CH2]CCC)[O]C2C(CO)OC(n3ccc(N)nc3=O)C2[O]1` (centres undefined): under “dose: 6.0 mg/kg/injection, schedule: Q04DX003 (sc), vehicle: Klucel (hydroxypropylcellulose) (HPC)”, the T/C is 133 % of control.
Consider `NC(C/[N+]([O-])=N/O)C(=O)O` (centres undefined), for which the T/C under setting [1] is 138 % of control. Besides, the survivor count under setting [2] is 1 of 3 on day 11 and the survivor count (dose: 400.0 mg/kg/injection, schedule: Q01DX010 (sc), vehicle: saline) was 0 of 3 on day 11.
As for `CC1=C[S+](c2ccccc2)c2cccc3cc4ccccc4c1c23` (centres undefined), the T/C (dose: 4.0 mg/kg/injection, schedule: Q04DX003 (sc), vehicle: saline with Tween-80) was 127 % of control; the T/C (dose: 8.0 mg/kg/injection, schedule: Q04DX003 (sc), vehicle: saline with Tween-80) was 126 % of control; the T/C (dose: 16.0 mg/kg/injection, schedule: Q04DX003 (sc), vehicle: saline with Tween-80) was 142 % of control.
On to `C1CCC2[N-]CC3CCCCC3[N-]CC3CCCCC3[N-]CC3CCCCC3[N-]CC2C1.[Cu]` (centres undefined), for which the survivor count (dose: 50.0 mg/kg/injection, schedule: Q01DX010 (sc), vehicle: Klucel (hydroxypropylcellulose) (HPC)) is recorded as 0 of 3 on day 11.
Consider `COc1ccc2nc3cc(Cl)ccc3c(NCCNCCNCCNc3c4ccc(Cl)cc4nc4ccc(OC)cc34)c2c1`, for which, for the setting “dose: 800.0 mg/kg/injection, schedule: Q01DX010 (sc), vehicle: saline with Tween-80”, the survivor count was 1 of 3 on day 11.
On to `CC1OC(=O)C(C(C)C)NC(=O)C(C(C)C)OC(=O)C(C(C)C)NC(=O)C(C)OC(=O)C(C(C)C)NC(=O)C(C(C)C)OC(=O)C(C(C)C)NC(=O)C(C)OC(=O)C(C(C)C)NC(=O)C(C(C)C)OC(=O)C(C(C)C)NC1=O` (centres undefined), for which the T/C runs as follows: (dose: 5.0 mg/kg/injection, schedule: Q01DX010 (sc), vehicle: saline with Tween-80) 125 % of control; under setting [3], 128 % of control [2 of 3 alive on day 11]. The survivor count by setting is: (dose: 20.0 mg/kg/injection, schedule: Q01DX010 (ip), vehicle: saline with Tween-80) 0 of 3 on day 11; under setting [3], 1 of 3 on day 11; (dose: 33.33 mg/kg/injection, schedule: Q04DX003 (ip), vehicle: saline with Tween-80) 1 of 3 on day 11; (dose: 40.0 mg/kg/injection, schedule: Q01DX010 (ip), vehicle: saline with Tween-80) 0 of 3 on day 11; (dose: 40.0 mg/kg/injection, schedule: Q01DX010 (sc), vehicle: saline with Tween-80) 0 of 3 on day 11 and 1 of 3 on day 11; (dose: 133.3 mg/kg/injection, schedule: Q04DX003 (ip), vehicle: saline with Tween-80) 0 of 3 on day 11. Moreover, the survivor count (dose: 133.3 mg/kg/injection, schedule: Q04DX003 (sc), vehicle: saline with Tween-80) is reported as 0 of 3 on day 11.
In the case of `CN1C(=O)NC(c2ccc(Cl)cc2)(c2ccc(Cl)cc2)C1=O`, the T/C (dose: 200.0 mg/kg/injection, schedule: Q01DX010 (sc), vehicle: saline with Tween-80) was 146 % of control [2 of 2 alive on day 11].
With `c1cnc2ncncc2n1`, the T/C (dose: 50.0 mg/kg/injection, schedule: Q04DX003 (sc), vehicle: saline with Tween-80) was 128 % of control. In addition, the survivor count is, setting by setting: under setting [4], 3 of 5 on day 11; under setting [5], 1 of 6 on day 11 and 3 of 6 on day 11; (dose: 400.0 mg/kg/injection, schedule: Q04DX003 (sc), vehicle: saline with Tween-80) 0 of 6 on day 11 and 1 of 6 on day 11.
For `COc1cc2cc[n+](C)c(Cc3ccccc3)c2cc1OC`, the survivor count is listed as 0 of 6 on day 11 (dose: 150.0 mg/kg/injection, schedule: Q04DX003 (sc), vehicle: Klucel (hydroxypropylcellulose) (HPC)) and 0 of 6 on day 11 (dose: 300.0 mg/kg/injection, schedule: Q04DX003 (sc), vehicle: Klucel (hydroxypropylcellulose) (HPC)).
As for `O=C(Nc1cccc(Cl)c1)ON1C(=O)C2C(C1=O)C1(Cl)C(Cl)C(Cl)C2(Cl)C1(Cl)Cl` (centres undefined), the survivor count (dose: 2400.0 mg/kg/injection, schedule: Q04DX003 (sc), vehicle: saline with Tween-80) is 2 of 6 on day 11.
For the compound `CN(C)C(=O)c1cccc(COc2ccc(N3C(N)=NC(N)=NC3(C)C)cc2Cl)c1`, the survivor count under setting [6] is given as 0 of 3 on day 11; the survivor count (dose: 50.0 mg/kg/injection, schedule: Q01DX010 (sc), vehicle: suspension in saline) is 0 of 3 on day 11; the survivor count (dose: 100.0 mg/kg/injection, schedule: Q01DX010 (sc), vehicle: suspension in saline) is 0 of 3 on day 11; the survivor count (dose: 200.0 mg/kg/injection, schedule: Q01DX010 (sc), vehicle: suspension in saline) is 0 of 3 on day 11.
Consider `COc1ccc2c(NCCCCCCNc3c4ccccc4nc4cc(OC)ccc34)c3ccccc3nc2c1`, for which the T/C (dose: 5.0 mg/kg/injection, schedule: Q01DX010 (sc), vehicle: lactic acid) is 143 % of control.
As for `CNC(=O)ON(C(C)=O)C(=O)NC`, the T/C under setting [6] is 130 % of control. Also, the survivor count under setting [1] was 1 of 2 on day 11.
Consider `O=C1C(NCCO)=C(N2CC2)C(=O)C(NCCO)=C1N1CC1`, for which the survivor count is given as 1 of 3 on day 11 (dose: 1.0 mg/kg/injection, schedule: Q04DX003 (ip), vehicle: saline); 2 of 6 on day 11 (dose: 3.0 mg/kg/injection, schedule: Q04DX003 (sc), vehicle: suspension in saline); 2 of 6 on day 11 (dose: 6.0 mg/kg/injection, schedule: Q04DX003 (sc), vehicle: suspension in saline); 0 of 6 on day 11 (dose: 12.0 mg/kg/injection, schedule: Q04DX003 (sc), vehicle: suspension in saline).
`BrC[P+](CBr)(CBr)CBr`: the T/C by setting is: under setting [4], 130 % of control; under setting [5], 132 % of control. Further, under “dose: 800.0 mg/kg/injection, schedule: Q04DX003 (sc), vehicle: saline with Tween-80”, the survivor count is given as 0 of 6 on day 11.
Regarding `NS(=O)(=O)OCCCCCCCOS(N)(=O)=O`, the survivor count reads like this: (dose: 600.0 mg/kg/injection, schedule: Q04DX003 (ip), vehicle: saline with Tween-80) 0 of 6 on day 11; (dose: 1200.0 mg/kg/injection, schedule: Q04DX003 (ip), vehicle: saline with Tween-80) 0 of 6 on day 11.
Take `CC1CN1P1(N2CC2C)=NP(N2CC2C)(N2CC2C)=NP(N2CC2C)(N2CC2C)=N1` (centres undefined): the survivor count under setting [2] is listed as 0 of 3 on day 11, 0 of 6 on day 11, 1 of 6 on day 11.
As for `OCCN1CCN(CC/C=C2/c3ccccc3Sc3ccc(Cl)cc32)CC1`, the survivor count runs as follows: (dose: 100.0 mg/kg/injection, schedule: Q04DX003 (sc), vehicle: saline) 3 of 6 on day 11; (dose: 200.0 mg/kg/injection, schedule: Q04DX003 (sc), vehicle: saline) 2 of 6 on day 11; (dose: 400.0 mg/kg/injection, schedule: Q04DX003 (sc), vehicle: saline) 0 of 6 on day 11; (dose: 800.0 mg/kg/injection, schedule: Q04DX003 (sc), vehicle: saline) 0 of 6 on day 11.
In the case of `CCN(C)N=Nc1ccc(C(N)=O)cc1`, the survivor count reads like this: (dose: 200.0 mg/kg/injection, schedule: Q01DX010 (sc), vehicle: Klucel (hydroxypropylcellulose) (HPC)) 0 of 3 on day 11; (dose: 400.0 mg/kg/injection, schedule: Q01DX010 (sc), vehicle: Klucel (hydroxypropylcellulose) (HPC)) 0 of 3 on day 11.
